Results from the supplement of paper PMC10849652.
The other results are listed elsewhere or left out.

Protein sequences, listed by entry. Tags and fused reporters are not part of them. Lines headed by an entry give the natural chain unless they say otherwise; changes in a name come on top.
UniProt Q17R31: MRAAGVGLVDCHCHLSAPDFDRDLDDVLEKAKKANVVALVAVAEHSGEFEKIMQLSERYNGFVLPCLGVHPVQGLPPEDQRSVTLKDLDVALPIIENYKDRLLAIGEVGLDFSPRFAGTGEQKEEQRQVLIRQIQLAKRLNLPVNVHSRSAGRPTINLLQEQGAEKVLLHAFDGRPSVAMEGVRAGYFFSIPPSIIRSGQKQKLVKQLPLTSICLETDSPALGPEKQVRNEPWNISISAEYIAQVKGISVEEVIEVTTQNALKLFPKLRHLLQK
UniProt P02786, whole entry, looked up: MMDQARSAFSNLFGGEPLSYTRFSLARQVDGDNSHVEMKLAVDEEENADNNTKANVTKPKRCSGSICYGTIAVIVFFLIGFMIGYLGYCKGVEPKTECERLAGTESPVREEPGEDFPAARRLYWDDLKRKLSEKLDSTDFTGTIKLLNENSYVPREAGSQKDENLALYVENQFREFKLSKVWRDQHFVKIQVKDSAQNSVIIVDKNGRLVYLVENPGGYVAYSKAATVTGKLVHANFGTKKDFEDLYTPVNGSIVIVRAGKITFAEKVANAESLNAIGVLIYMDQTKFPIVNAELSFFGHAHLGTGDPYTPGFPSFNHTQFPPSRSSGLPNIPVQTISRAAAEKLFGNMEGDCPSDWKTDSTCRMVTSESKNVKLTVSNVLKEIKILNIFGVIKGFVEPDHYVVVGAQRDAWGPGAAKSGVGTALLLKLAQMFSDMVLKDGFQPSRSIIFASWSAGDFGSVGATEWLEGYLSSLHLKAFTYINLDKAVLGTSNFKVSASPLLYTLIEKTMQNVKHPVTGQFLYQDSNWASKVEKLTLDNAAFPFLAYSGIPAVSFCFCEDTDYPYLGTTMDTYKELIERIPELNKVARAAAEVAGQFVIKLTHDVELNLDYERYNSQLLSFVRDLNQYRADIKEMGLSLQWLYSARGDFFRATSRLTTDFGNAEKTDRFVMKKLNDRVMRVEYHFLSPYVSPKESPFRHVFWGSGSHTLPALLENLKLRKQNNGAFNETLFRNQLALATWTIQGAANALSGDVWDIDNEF
UniProt Q9P2M4: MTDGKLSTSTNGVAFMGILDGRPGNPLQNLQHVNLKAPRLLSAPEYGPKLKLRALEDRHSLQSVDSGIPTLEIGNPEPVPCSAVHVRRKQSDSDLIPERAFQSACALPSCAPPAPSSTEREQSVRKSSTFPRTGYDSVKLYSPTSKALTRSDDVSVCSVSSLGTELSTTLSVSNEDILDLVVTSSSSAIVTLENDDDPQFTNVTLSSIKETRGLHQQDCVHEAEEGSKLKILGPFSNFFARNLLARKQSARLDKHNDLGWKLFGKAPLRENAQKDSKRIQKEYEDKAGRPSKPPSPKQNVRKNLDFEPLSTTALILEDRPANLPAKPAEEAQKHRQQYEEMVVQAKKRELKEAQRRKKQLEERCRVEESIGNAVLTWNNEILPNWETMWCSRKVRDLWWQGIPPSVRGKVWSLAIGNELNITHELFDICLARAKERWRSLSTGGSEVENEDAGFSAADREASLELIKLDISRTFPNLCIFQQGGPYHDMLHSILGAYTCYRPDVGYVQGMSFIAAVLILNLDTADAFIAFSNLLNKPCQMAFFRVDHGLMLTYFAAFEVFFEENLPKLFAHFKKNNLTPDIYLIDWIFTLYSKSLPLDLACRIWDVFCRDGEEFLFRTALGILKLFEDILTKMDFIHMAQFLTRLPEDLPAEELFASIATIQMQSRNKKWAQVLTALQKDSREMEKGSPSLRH
UniProt Q9Y4P3: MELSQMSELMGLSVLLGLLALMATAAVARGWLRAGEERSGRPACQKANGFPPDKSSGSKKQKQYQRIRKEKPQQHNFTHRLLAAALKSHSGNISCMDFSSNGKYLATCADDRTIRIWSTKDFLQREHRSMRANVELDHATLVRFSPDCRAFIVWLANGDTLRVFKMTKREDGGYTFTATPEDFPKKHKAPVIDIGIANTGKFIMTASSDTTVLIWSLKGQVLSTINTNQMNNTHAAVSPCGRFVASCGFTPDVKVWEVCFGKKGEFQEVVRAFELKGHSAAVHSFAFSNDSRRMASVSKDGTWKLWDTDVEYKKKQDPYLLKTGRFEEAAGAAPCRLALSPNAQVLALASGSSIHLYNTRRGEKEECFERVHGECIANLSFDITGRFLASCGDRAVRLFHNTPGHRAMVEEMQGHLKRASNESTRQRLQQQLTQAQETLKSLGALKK
UniProt Q8IWB9: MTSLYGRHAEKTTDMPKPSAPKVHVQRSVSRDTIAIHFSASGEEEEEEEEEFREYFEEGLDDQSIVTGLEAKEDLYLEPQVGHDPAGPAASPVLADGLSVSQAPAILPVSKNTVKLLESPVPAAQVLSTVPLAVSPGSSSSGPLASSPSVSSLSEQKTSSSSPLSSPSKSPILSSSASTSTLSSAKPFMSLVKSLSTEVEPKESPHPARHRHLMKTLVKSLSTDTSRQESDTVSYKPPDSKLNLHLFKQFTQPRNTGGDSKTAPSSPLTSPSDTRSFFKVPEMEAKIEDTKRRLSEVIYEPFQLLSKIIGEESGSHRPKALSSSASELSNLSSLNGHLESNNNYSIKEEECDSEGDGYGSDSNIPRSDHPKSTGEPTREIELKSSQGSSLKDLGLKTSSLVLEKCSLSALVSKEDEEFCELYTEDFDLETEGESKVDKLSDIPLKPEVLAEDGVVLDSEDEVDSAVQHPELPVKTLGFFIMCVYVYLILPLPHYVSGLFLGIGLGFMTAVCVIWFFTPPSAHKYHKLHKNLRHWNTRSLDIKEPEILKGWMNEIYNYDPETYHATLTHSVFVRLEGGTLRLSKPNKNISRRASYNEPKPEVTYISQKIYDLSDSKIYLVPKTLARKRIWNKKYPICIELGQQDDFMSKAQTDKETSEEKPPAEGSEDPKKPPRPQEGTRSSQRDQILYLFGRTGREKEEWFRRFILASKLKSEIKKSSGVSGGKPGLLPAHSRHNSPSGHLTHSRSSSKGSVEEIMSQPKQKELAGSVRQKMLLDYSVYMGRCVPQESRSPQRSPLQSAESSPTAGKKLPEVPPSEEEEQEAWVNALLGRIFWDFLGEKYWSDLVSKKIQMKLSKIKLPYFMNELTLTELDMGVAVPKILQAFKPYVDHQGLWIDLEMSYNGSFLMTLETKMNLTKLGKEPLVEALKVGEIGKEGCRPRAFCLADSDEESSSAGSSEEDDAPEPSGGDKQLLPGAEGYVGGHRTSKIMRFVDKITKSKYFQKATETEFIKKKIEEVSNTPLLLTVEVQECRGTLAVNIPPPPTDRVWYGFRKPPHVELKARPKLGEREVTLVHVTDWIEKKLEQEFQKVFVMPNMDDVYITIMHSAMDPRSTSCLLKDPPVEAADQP
UniProt Q9UHD2: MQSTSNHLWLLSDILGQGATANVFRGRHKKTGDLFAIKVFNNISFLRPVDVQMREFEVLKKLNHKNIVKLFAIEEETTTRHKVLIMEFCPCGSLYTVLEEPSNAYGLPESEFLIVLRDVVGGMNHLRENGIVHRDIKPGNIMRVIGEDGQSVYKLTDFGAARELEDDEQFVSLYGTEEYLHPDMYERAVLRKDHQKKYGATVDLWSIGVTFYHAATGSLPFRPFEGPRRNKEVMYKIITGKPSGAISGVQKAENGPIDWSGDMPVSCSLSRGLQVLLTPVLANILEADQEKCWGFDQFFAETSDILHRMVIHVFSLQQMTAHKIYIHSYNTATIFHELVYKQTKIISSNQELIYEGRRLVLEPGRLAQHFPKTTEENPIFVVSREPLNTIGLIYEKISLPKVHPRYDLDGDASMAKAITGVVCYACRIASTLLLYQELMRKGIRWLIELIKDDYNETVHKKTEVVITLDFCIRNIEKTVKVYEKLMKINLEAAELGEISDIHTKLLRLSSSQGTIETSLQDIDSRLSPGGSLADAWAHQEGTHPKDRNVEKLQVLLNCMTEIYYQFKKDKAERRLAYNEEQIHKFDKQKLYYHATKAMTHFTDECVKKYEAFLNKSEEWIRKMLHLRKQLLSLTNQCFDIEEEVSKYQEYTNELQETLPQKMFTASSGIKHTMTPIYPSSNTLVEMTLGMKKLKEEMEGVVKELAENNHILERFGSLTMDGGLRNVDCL
UniProt Q9HA65: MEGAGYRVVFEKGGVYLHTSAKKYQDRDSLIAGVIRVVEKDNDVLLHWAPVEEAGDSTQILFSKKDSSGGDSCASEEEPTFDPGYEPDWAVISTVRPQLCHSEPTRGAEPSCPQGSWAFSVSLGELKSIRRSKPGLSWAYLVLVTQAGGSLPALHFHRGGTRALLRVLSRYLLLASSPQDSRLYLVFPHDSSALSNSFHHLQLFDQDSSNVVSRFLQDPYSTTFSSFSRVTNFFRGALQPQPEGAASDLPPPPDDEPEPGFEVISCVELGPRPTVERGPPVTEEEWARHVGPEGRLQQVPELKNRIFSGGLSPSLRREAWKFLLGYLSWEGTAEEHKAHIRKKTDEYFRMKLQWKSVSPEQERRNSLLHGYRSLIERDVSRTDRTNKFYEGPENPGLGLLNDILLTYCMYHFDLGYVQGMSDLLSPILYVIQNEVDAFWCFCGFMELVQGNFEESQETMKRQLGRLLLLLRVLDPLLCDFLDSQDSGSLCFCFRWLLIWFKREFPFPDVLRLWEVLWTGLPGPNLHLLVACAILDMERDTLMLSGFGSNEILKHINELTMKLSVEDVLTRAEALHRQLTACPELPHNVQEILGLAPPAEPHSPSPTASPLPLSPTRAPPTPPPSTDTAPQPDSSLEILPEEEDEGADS
UniProt Q16594, whole entry, looked up: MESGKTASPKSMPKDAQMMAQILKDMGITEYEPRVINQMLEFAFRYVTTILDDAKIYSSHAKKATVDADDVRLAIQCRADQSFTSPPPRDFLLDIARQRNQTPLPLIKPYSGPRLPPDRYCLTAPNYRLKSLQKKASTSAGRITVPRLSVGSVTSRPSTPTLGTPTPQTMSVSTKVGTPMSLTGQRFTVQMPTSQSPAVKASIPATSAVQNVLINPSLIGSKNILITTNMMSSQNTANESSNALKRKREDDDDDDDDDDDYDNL
UniProt Q92734, whole entry, looked up: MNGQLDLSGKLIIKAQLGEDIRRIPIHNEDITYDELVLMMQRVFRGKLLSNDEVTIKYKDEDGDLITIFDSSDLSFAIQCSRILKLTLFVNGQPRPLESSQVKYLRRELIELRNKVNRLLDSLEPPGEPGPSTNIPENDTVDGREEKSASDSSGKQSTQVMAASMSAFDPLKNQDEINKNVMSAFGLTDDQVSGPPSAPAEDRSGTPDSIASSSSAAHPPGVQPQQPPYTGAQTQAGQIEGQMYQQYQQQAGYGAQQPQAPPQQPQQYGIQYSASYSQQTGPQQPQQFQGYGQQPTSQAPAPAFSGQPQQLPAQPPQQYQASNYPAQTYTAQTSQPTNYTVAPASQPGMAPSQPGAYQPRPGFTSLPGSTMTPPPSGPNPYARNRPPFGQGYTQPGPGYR
UniProt Q96BS2: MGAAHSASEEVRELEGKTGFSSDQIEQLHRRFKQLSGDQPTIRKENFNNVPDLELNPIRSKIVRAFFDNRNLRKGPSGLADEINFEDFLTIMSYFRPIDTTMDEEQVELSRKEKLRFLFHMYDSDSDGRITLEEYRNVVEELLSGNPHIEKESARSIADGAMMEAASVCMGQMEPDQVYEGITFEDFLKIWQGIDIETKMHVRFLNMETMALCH
UniProt Q9NYB0: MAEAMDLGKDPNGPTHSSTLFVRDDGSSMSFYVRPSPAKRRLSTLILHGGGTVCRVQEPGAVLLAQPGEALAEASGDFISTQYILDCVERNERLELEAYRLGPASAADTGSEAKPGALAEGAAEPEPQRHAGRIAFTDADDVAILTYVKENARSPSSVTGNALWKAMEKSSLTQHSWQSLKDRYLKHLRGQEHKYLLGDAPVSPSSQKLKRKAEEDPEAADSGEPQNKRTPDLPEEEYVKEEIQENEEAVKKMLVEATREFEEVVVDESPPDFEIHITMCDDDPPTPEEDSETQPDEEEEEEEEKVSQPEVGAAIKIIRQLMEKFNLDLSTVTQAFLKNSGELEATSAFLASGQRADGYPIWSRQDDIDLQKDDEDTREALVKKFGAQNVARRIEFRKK
UniProt Q9NZ01: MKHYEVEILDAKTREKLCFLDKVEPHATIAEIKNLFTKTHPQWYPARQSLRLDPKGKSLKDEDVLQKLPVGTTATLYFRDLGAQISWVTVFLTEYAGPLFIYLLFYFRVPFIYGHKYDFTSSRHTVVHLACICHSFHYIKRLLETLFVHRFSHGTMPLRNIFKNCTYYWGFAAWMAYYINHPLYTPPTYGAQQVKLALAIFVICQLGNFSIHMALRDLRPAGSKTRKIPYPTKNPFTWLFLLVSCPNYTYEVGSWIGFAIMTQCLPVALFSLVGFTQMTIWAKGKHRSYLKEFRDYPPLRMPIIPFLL
UniProt P37837: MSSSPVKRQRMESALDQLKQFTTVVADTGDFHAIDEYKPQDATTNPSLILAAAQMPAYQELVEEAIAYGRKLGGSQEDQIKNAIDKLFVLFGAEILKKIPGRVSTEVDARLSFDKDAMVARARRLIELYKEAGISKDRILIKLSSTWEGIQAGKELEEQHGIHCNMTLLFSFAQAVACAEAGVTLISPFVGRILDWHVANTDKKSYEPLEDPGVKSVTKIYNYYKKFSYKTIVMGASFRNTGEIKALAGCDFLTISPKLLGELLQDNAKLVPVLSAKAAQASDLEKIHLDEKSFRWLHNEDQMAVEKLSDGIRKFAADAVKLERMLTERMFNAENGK

How the values were obtained:
Assay in all cases: log2 fold change, soluble protein after heating vs DMSO (PISA); higher = thermal stabilisation; K562 lysate, 10 uM; active = over 0.2 and 3.5 SD of the protein, either way, in both replicates (recomputed)
erlotinib = compound: C#Cc1cccc(Nc2ncnc3cc(OCCOC)c(OCCOC)cc23)c1 [erlotinib]
Summary of the method: (§1)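 Following dounce homogenisation of K562 pellets in PBS pH 7.4 with 1 mM MgCl2, crude extract at 1 mg/mL protein was incubated for 30 min with 10 μM compound. Aliquots were then heated for 3 min over 48°C-58°C and pooled, NP-40 was added to 0.5% at 4°C, and soluble protein was recovered as the supernatant at 21,000xg for 90 min. Channel-sum-equalised TMTpro 16plex LC-MS/MS quantified this protein. Each value, from duplicates, is a log-two fold change in thermal stability relative to solvent controls.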

[1] = compound: C/C(=N\NC(=O)C1=CC(=CC=C1)S(=O)(=O)N2CCOCC2)/C3=C(C=CC(=C3)Cl)O
Summary of the method: as §1

[2] = compound: C1=CC(=CC=C1C2=NC3=C(N2)C=C(C=C3)C(=O)N)OC4=CC=C(C=C4)Cl
Summary of the method: as §1

[3] = compound: C1=CC2=C(C=CC(=C2)/C=C\3/C(=O)NC(=NCC4=CC=CS4)S3)N=C1
Summary of the method: as §1

[4] = compound: C1=CC2=NC=CN=C2C=C1/C=C/3\C(=O)NC(=O)S3
Summary of the method: as §1

[5] = compound: C1=CC=C(C=C1)C2=NC(=C(N2)C3=CC=NC=C3)C4=CC(=C(C=C4)Cl)O
Summary of the method: as §1

[6] = compound: C1=CC=C2C(=C1)C3=NNC4=CC=CC(=C43)C2=O
Summary of the method: as §1

[7] = compound: C1CCN(C1)C(=O)NC2=CC=CC(=C2)NC3=NC=C(C(=N3)NCCC4=CN=CN4)Br
Summary of the method: as §1

[8] = compound: C1CN(CCC1(CC2=CC=C(C=C2)Cl)N)C3=NC=NC4=C3C=CN4
Summary of the method: as §1

IRAK-1-4 Inhibitor I = compound: C1COCCN1CCN2C3=CC=CC=C3N=C2NC(=O)C4=CC(=CC=C4)[N+](=O)[O-] [IRAK-1-4 Inhibitor I]
Summary of the method: as §1

ibrutinib = compound: C=CC(=O)N1CCC[C@@H](n2nc(-c3ccc(Oc4ccccc4)cc3)c3c(N)ncnc32)C1 [ibrutinib]
Summary of the method: as §1

[9] = compound: CC(=O)c1cnc2ccc(-c3cc(Cl)c(O)c(Cl)c3)nc2c1N[C@H]1CC[C@H](CN(C)C)CC1
Summary of the method: as §1

ralimetinib = compound: CC(C)(C)Cn1c(N)nc2ccc(-c3[nH]c(C(C)(C)C)nc3-c3ccc(F)cc3)nc21 [ralimetinib]
Summary of the method: as §1

[10] = compound: CC(C)(O)CC(=O)NCCn1ccc2ncnc(Nc3ccc(Oc4cccc(C(F)(F)F)c4)c(Cl)c3)c21
Summary of the method: as §1

[11] = compound: CC(C)C1=C2N=C(C=C(N2N=C1)NCC3=CC=CC=C3)NCCCCCCN
Summary of the method: as §1

[12] = compound: CC1=C(C(CC(=O)N1)C2=CC=C(C=C2)C(F)(F)F)C(=O)NC3=C(C=C4C(=C3)C=NN4)F
Summary of the method: as §1

[13] = compound: CC1=C(C2=C(C=C1)C(=O)C3=CC=CC=C3N2CCCN)C
Summary of the method: as §1

[14] = compound: CC1=C(C=C(C=C1)NC(=O)C2=CC(=CC=C2)C(C)(C)C#N)NC3=CC4=C(C=C3)N=CN(C4=O)C
Summary of the method: as §1

[15] = compound: CC1=C(C=C(C=C1)NC(=O)C2=CC(=CC=C2)N(C)C)NC(=O)C3=CC=C(C=C3)O
Summary of the method: as §1

[16] = compound: CC1=CC=C(C=C1)SC2=C3C=C(SC3=CN=C2)C(=O)N
Summary of the method: as §1

Measured: log2 fold change

TATDN3 isoform 3 (UniProt Q17R31)
inactive: erlotinib -0.017 | [1] -0.027 | [2] -0.036 | [3] -0.045 | [4] 0.049 | [5] 0.018 | [6] -0.016 | [7] -0.079 | [8] 0.016 | IRAK-1-4 Inhibitor I 0.034 | ibrutinib 0.027 | [9] -0.005 | ralimetinib 0.019 | [10] -0.095 | [11] 0.006 | [12] -0.023 | [13] -0.046 | [14] -0.017 | [15] -0.015 | [16] -0.011

TFRC (UniProt P02786)
inactive: erlotinib 0 | [1] 0 | [2] 0.021 | [3] -0.009 | [4] 0.012 | [5] -0.009 | [6] 0.028 | [7] 0.015 | [8] -0.005 | IRAK-1-4 Inhibitor I -0.002 | ibrutinib -0.009 | [9] -0.006 | ralimetinib -0.005 | [10] -0.01 | [11] 0.001 | [12] -0.009 | [13] 0 | [14] -0.006 | [15] -0.017 | [16] -0.01

TBC1D14 (UniProt Q9P2M4)
inactive: erlotinib 0 | [1] -0.141 | [2] -0.01 | [3] 0.067 | [4] -0.069 | [5] -0.074 | [6] -0.052 | [7] -0.003 | [8] 0.108 | IRAK-1-4 Inhibitor I 0.053 | ibrutinib -0.077 | [9] -0.011 | ralimetinib 0.064 | [10] 0.044 | [11] -0.119 | [12] 0.093 | [13] 0.171 | [14] 0.006 | [15] 0.017 | [16] -0.053

TBL2 (UniProt Q9Y4P3)
inactive: erlotinib -0.019 | [1] 0.061 | [2] -0.027 | [3] 0.061 | [4] -0.023 | [5] 0.038 | [6] -0.06 | [7] -0.027 | [8] 0.001 | IRAK-1-4 Inhibitor I -0.022 | ibrutinib 0.014 | [9] 0.059 | ralimetinib 0.005 | [10] -0.001 | [11] 0 | [12] 0.045 | [13] 0.031 | [14] -0.008 | [15] 0.03 | [16] 0.05

TEX2 isoform 2 (UniProt Q8IWB9)
inactive: erlotinib -0.065 | [1] -0.327 | [2] 0.095 | [3] 0.09 | [4] -0.063 | [5] 0.141 | [6] -0.033 | [7] -0.018 | [8] 0.088 | IRAK-1-4 Inhibitor I -0.046 | ibrutinib 0.098 | [9] -0.011 | ralimetinib 0.131 | [10] -0.042 | [11] 0.119 | [12] 0.071 | [13] -0.057 | [14] -0.001 | [15] -0.05 | [16] -0.071

TBK1 (UniProt Q9UHD2)
inactive: erlotinib -0.005 | [1] -0.066 | [2] -0.03 | [3] 0.006 | [4] -0.067 | [5] 0.023 | [6] 0.238 | [7] 0.214 | [8] -0.047 | IRAK-1-4 Inhibitor I 0.082 | ibrutinib -0.02 | [9] 0.159 | ralimetinib -0.007 | [10] -0.035 | [11] 0.047 | [12] 0.015 | [13] -0.016 | [14] -0.034 | [15] 0.032 | [16] -0.013

TBC1D17 (UniProt Q9HA65)
inactive: erlotinib 0 | [1] 0.026 | [2] 0.002 | [3] 0.109 | [4] -0.024 | [5] 0.006 | [6] -0.038 | [7] 0.004 | [8] -0.044 | IRAK-1-4 Inhibitor I 0.023 | ibrutinib 0.015 | [9] 0.014 | ralimetinib 0.038 | [10] -0.065 | [11] 0.015 | [12] 0.064 | [13] 0.049 | [14] -0.043 | [15] -0.016 | [16] 0.019

TDRD7 (UniProt Q8NHU6)
inactive: erlotinib 0.027 | [1] 0.084 | [2] 0.043 | [3] 0.019 | [4] 0.019 | [5] 0.024 | [6] -0.015 | [7] -0.005 | [8] 0.055 | IRAK-1-4 Inhibitor I -0.006 | ibrutinib -0.004 | [9] -0.003 | ralimetinib 0.035 | [10] -0.043 | [11] -0.026 | [12] 0.033 | [13] -0.013 | [14] 0.06 | [15] 0.012 | [16] -0.016

TCF3 (UniProt P15923)
inactive: erlotinib 0.027 | [1] -0.028 | [2] 0.067 | [3] 0.004 | [4] 0.016 | [5] 0.011 | [6] 0.07 | [7] -0.005 | [8] 0.022 | IRAK-1-4 Inhibitor I 0.04 | ibrutinib 0.001 | [9] 0.027 | ralimetinib 0.014 | [10] -0.028 | [11] -0.005 | [12] -0.034 | [13] -0.074 | [14] -0.061 | [15] -0.045 | [16] -0.016

TAF9 (UniProt Q16594)
inactive: erlotinib 0.022 | [1] 0.009 | [2] 0.081 | [3] 0.056 | [4] 0.002 | [5] 0.013 | [6] -0.052 | [7] -0.08 | [8] 0.084 | IRAK-1-4 Inhibitor I 0.032 | ibrutinib -0.028 | [9] 0.044 | ralimetinib 0.033 | [10] -0.057 | [11] 0.032 | [12] 0.015 | [13] 0.019 | [14] 0.027 | [15] 0.101 | [16] -0.023

Two records picked at random from the list so far, as already listed:
TDRD7 (UniProt Q8NHU6)
inactive: erlotinib 0.027 | [1] 0.084 | [2] 0.043 | [3] 0.019 | [4] 0.019 | [5] 0.024 | [6] -0.015 | [7] -0.005 | [8] 0.055 | IRAK-1-4 Inhibitor I -0.006 | ibrutinib -0.004 | [9] -0.003 | ralimetinib 0.035 | [10] -0.043 | [11] -0.026 | [12] 0.033 | [13] -0.013 | [14] 0.06 | [15] 0.012 | [16] -0.016

TAF9 (UniProt Q16594)
inactive: erlotinib 0.022 | [1] 0.009 | [2] 0.081 | [3] 0.056 | [4] 0.002 | [5] 0.013 | [6] -0.052 | [7] -0.08 | [8] 0.084 | IRAK-1-4 Inhibitor I 0.032 | ibrutinib -0.028 | [9] 0.044 | ralimetinib 0.033 | [10] -0.057 | [11] 0.032 | [12] 0.015 | [13] 0.019 | [14] 0.027 | [15] 0.101 | [16] -0.023

Later entries.

TFG (UniProt Q92734)
inactive: erlotinib -0.017 | [1] 0.008 | [2] 0.041 | [3] 0.011 | [4] 0 | [5] 0.008 | [6] -0.008 | [7] 0.002 | [8] 0.019 | IRAK-1-4 Inhibitor I 0.004 | ibrutinib 0.001 | [9] -0.002 | ralimetinib -0.029 | [10] -0.008 | [11] -0.004 | [12] -0.021 | [13] 0.002 | [14] 0.003 | [15] -0.018 | [16] 0.008

TBC1D8B (UniProt Q0IIM8)
inactive: erlotinib -0.023 | [1] -0.376 | [2] 0.036 | [3] -0.041 | [4] 0 | [5] 0.01 | [6] 0.01 | [7] 0.017 | [8] 0.063 | IRAK-1-4 Inhibitor I 0.001 | ibrutinib 0.044 | [9] -0.039 | ralimetinib -0.049 | [10] -0.017 | [11] 0.031 | [12] -0.072 | [13] 0.006 | [14] 0.016 | [15] -0.056 | [16] -0.051

TESC (UniProt Q96BS2)
inactive: erlotinib -0.043 | [1] 0.042 | [2] 0.03 | [3] 0.074 | [4] -0.042 | [5] -0.006 | [6] 0.036 | [7] 0.003 | [8] 0.04 | IRAK-1-4 Inhibitor I -0.003 | ibrutinib 0.065 | [9] -0.029 | ralimetinib 0.005 | [10] 0.056 | [11] -0.055 | [12] 0.043 | [13] 0.015 | [14] 0 | [15] -0.013 | [16] -0.077

TERF2IP (UniProt Q9NYB0)
inactive: erlotinib -0.003 | [1] 0.025 | [2] 0.03 | [3] -0.054 | [4] -0.023 | [5] -0.001 | [6] 0.005 | [7] 0.019 | [8] 0.029 | IRAK-1-4 Inhibitor I 0.009 | ibrutinib 0.02 | [9] -0.012 | ralimetinib 0.025 | [10] -0.049 | [11] -0.047 | [12] 0.004 | [13] -0.004 | [14] -0.008 | [15] -0.005 | [16] 0.003

TECR (UniProt Q9NZ01)
inactive: erlotinib 0.024 | [1] -0.029 | [2] -0.113 | [3] 0.019 | [4] 0.083 | [5] -0.013 | [6] -0.066 | [7] -0.008 | [8] 0.028 | IRAK-1-4 Inhibitor I 0.038 | ibrutinib -0.003 | [9] 0.037 | ralimetinib 0 | [10] -0.046 | [11] -0.003 | [12] 0.044 | [13] 0.041 | [14] -0.031 | [15] 0.06 | [16] 0.025

TALDO1 (UniProt P37837)
inactive: erlotinib -0.043 | [1] 0.04 | [2] -0.054 | [3] -0.004 | [4] -0.001 | [5] 0 | [6] 0.011 | [7] 0.003 | [8] -0.017 | IRAK-1-4 Inhibitor I -0.024 | ibrutinib -0.009 | [9] 0.019 | ralimetinib -0.011 | [10] 0.038 | [11] -0.006 | [12] -0.036 | [13] 0.021 | [14] -0.055 | [15] -0.012 | [16] 0.024
